Fewer than 10 of roughly 1,000 compounds were called active. The source calls these results inconclusive, neither active nor inactive. No rule for the calls is given here.
Experiment: enhancers of SMN2 over SMN1 splicing, cell-based, SMN2/SMN1 luciferase reporters (AID 1598)
Conditions: SMN2 vs SMN1 luciferase splicing reporter cells; at 10 µM; stronger effect = higher value
With `CN(CCCl)CCCl` the SMN2/SMN1 luciferase ratio was inconclusive: 1.26.

From PubChem BioAssay AID1598 (NINDS Approved Drug Screening Program, 2009)
